Laboratory results taken from patent publication US4251539A, “Amino derivatives of 3-alkyl-5-(2-hydroxystyryl)-isoxazoles” (BASF Aktiengesellschaft, priority 1978, dated 1981).
At least one compound was matched to its structure with a doubt left.

System: isoproterenol-induced tachycardia
Details: i.v., cats

SMILES: CCc1cc(C=Cc2ccccc2OCC(O)CNC2CC2)on1 (stereo not shown) [Example 5, 3-Ethyl-5-[2-(2-hydroxy-3-cyclopropylaminopropoxy)-styryl]-isoxazole]
- β-sympatholytic activity compared with propranolol (in words): approximately equal to that of propranolol
